For this test, the target named is T1, HA-tagged FRA1DD, constitutively active phosphomimetic FRA1 (Fos-like antigen 1) mutant (UniProt P15407).
T1 sequence: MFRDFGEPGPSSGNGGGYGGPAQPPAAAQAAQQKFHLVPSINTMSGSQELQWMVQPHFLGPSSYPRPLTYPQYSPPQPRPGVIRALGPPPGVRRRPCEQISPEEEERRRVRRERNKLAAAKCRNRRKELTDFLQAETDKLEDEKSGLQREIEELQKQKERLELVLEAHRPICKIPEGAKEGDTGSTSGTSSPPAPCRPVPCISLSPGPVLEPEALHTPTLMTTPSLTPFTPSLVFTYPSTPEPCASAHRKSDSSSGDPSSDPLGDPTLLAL
Nature of the test: co-IP; lysates of FaDu cells expressing HA-tagged FRA1DD; IP with an antibody against HA, immunoblotting for c-Jun and FRA1. On the technique in general: Immunoblotting shows a protein as a band on a membrane.

Chains of the proteins cited; added tags and fusions are not shown.
UniProt P05412: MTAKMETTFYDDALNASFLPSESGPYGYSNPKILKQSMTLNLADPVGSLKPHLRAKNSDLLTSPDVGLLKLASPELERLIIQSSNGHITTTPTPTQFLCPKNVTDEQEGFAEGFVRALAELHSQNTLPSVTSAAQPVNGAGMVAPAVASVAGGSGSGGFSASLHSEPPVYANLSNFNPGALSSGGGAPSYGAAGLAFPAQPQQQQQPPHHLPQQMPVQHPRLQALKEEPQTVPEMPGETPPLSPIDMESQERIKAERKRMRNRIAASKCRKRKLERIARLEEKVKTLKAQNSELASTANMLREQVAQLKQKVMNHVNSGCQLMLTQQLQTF

No constants are given. Whether binding was seen depends on the method and setting. In cells and extracts the contact can be indirect. Some results given as binding are weak or reduced against the parent protein; the word gives no strength. Tags and fused reporters may be left off the sequences shown.

In the case of c-Jun (from UniProt P05412 1-331), the binding result was “binds”.

For the origin of these results see publication PMC5085162.
